From patent publication US20090023731A1, “SOLUBLE EPOXIDE HYDROLASE INHIBITORS” (Arete Therapeutics, Inc., priority 2007, published 2009)
For at least one compound, name, drawing or mass did not settle the structure.

System: soluble epoxide hydrolase (sEH)
Assay: Fluorescent assay for mouse and human soluble epoxide hydrolase (CMNPC substrate)
Assay type: biochemical
Conditions: inhibitor conc. 2000 nM
Protocol: Recombinant mouse sEH (MsEH) and human sEH (HsEH) were produced in a baculovirus expression system as previously reported. […] The expressed proteins were purified from cell lysate by affinity chromatography. […] Protein concentration was quantified using the Pierce BCA assay using bovine serum albumin as the calibrating standard.
The IC50s for each inhibitor were according to the following procedure:
Bis/Tris HCl 25 mM pH 7.0 containing 0.1 mg/mL of BSA (buffer A) CMNPC at 0.25 mM in DMSO.
Mother solution of enzyme in buffer A (Mouse sEH at 6 μg/mL and Human sEH at 5 μg/mL). Inhibitor dissolved in DMSO at the appropriate concentration.
In a black 96 well plate, fill all the wells with 150 μL of buffer A.
Add 2 μL of DMSO in well A2 and A3, and then add 2 μL of inhibitor solution in A1 and A4 through A12.
Add […] of buffer A in row A, then mix several time and transfer […] to row B. Repeat this operation up to row H. The […] removed from row H is discarded.
Add […] of buffer A in column 1 and 2, then add […] of enzyme solution to column 3 to 12.
Incubate the plate for 5 minutes in the plate reader at 30° C.
During incubation prepare the working solution of substrate by mixing 3.68 mL of buffer A (4×0.920 mL) with 266 μL (2×133 μL) of substrate solution).
The velocities are used to analyze and calculate the IC50s.

O=C(Nc1cccc(Oc2ccc(C(=O)O)cc2)c1)NC12CC3CC(CC(C3)C1)C2 [Compound 68]
% Inh: 98%
